Among the data in publication PMC8800262 are binding values, retold here.

The target of this test is T1, nuclear factor erythroid 2-related factor 2 (mouse (endogenous in HT-22)) (UniProt Q60795).
T1 sequence: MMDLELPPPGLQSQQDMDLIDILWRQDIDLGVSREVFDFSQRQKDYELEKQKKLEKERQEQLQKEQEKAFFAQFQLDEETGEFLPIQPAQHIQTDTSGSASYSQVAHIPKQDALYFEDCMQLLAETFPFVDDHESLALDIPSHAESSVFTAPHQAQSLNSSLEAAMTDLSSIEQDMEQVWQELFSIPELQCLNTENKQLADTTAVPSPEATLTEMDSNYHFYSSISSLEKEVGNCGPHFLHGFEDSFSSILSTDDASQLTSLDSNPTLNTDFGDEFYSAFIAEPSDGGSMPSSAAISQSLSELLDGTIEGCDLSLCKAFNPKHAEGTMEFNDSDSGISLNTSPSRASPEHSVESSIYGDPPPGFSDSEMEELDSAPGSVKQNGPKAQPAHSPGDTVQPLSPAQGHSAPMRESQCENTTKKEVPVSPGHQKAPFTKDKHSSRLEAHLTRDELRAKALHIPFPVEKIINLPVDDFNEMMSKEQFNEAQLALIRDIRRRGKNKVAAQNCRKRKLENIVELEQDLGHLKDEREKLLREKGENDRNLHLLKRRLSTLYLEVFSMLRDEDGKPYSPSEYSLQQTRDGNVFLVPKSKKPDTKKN
Nature of the test: co-IP; total protein of HT-22 cells treated with or without eriodictyol (8 uM); anti-Nrf2 or anti-vitamin D receptor antibody on Protein A/G magnetic beads; binding buffer 50 mM Tris-HCl, 150 mM NaCl, 0.1%-0.5 detergent (Triton X-100 and Tween 20), pH 7.5; 1 h at room temperature; Western blot with anti-vitamin D receptor or anti-Nrf2 antibody. In general terms: In western blotting, separated proteins are transferred to a membrane and probed.

Results are given in words; binding and its absence hold for the method and conditions named. Binding seen in cells or lysates may run through a third protein. Some results given as binding are weak or reduced against the parent protein; the word gives no strength.

B1: vitamin D receptor (protein, UniProt P48281 1-422)
chain: MEAMAASTSLPDPGDFDRNVPRICGVCGDRATGFHFNAMTCEGCKGFFRRSMKRKALFTCPFNGDCRITKDNRRHCQACRLKRCVDIGMMKEFILTDEEVQRKREMIMKRKEEEALKDSLRPKLSEEQQHIIAILLDAHHKTYDPTYADFRDFRPPIRADVSTGSYSPRPTLSFSGDSSSNSDLYTPSLDMMEPASFSTMDLNEEGSDDPSVTLDLSPLSMLPHLADLVSYSIQKVIGFAKMIPGFRDLTSDDQIVLLKSSAIEVIMLRSNQSFTLDDMSWDCGSQDYKYDITDVSRAGHTLELIEPLIKFQVGLKKLNLHEEEHVLLMAICIVSPDRPGVQDAKLVEAIQDRLSNTLQTYIRCRHPPPGSHQLYAKMIQKLADLRSLNEEHSKQYRSLSFQPENSMKLTPLVLEVFGNEIS
In the case of B1, the binding entry is listed as “binds”.
